Data: PMC11220018
Results are given in words; binding and its absence hold for the method and conditions named. Binding seen in cells or lysates may run through a third protein. A yes stands for co-enrichment or nearness to the bait. Other partners may have been found.

Protein sequences, listed by entry. Tags and fused reporters are not part of them. Lines headed by an entry give the natural chain unless they say otherwise; changes in a name come on top.
UniProt P05556: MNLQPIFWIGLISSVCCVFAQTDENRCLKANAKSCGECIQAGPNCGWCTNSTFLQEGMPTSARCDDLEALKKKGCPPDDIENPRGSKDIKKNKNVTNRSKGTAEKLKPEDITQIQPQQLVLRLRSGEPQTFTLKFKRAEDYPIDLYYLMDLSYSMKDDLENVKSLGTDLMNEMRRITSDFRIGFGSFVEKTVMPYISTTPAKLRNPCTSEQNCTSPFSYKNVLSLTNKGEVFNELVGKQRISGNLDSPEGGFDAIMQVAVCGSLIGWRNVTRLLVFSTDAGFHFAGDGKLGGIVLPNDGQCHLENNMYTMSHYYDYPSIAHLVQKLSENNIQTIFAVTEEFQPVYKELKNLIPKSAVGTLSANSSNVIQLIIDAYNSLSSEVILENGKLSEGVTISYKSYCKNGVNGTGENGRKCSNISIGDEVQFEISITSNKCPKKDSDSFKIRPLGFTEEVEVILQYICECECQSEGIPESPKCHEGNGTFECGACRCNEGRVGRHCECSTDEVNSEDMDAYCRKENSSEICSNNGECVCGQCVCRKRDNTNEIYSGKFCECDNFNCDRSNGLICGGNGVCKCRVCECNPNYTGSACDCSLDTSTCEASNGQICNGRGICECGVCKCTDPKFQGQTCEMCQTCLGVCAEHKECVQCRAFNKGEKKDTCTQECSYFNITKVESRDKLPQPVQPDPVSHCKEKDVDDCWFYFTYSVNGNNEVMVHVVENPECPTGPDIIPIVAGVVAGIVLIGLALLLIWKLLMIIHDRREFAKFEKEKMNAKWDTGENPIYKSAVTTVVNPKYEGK

Molecular target: NRP1 (UniProt O14786)
Assay: affinity purification with mass spectrometry; Sema3C and NRP1 overexpressed in Huh7 cells; co-immunoprecipitation (anti-Flag or anti-HA, rProtein A/G magnetic beads), gel bands digested with trypsin, Q Exactive HF-X

For “ITGB1 (from UniProt P05556 21-798) (receptor)”, which binding is on record?
Its binding is “binds”.
